# This is one part of the list. The data scatter; read single values as rough.
# Amino acid sequences for entries named in this document (tags omitted). A change or cut given only in a name is not applied to a line headed by its entry. Residues count along the entry.
# UniProt P42858, whole entry, looked up: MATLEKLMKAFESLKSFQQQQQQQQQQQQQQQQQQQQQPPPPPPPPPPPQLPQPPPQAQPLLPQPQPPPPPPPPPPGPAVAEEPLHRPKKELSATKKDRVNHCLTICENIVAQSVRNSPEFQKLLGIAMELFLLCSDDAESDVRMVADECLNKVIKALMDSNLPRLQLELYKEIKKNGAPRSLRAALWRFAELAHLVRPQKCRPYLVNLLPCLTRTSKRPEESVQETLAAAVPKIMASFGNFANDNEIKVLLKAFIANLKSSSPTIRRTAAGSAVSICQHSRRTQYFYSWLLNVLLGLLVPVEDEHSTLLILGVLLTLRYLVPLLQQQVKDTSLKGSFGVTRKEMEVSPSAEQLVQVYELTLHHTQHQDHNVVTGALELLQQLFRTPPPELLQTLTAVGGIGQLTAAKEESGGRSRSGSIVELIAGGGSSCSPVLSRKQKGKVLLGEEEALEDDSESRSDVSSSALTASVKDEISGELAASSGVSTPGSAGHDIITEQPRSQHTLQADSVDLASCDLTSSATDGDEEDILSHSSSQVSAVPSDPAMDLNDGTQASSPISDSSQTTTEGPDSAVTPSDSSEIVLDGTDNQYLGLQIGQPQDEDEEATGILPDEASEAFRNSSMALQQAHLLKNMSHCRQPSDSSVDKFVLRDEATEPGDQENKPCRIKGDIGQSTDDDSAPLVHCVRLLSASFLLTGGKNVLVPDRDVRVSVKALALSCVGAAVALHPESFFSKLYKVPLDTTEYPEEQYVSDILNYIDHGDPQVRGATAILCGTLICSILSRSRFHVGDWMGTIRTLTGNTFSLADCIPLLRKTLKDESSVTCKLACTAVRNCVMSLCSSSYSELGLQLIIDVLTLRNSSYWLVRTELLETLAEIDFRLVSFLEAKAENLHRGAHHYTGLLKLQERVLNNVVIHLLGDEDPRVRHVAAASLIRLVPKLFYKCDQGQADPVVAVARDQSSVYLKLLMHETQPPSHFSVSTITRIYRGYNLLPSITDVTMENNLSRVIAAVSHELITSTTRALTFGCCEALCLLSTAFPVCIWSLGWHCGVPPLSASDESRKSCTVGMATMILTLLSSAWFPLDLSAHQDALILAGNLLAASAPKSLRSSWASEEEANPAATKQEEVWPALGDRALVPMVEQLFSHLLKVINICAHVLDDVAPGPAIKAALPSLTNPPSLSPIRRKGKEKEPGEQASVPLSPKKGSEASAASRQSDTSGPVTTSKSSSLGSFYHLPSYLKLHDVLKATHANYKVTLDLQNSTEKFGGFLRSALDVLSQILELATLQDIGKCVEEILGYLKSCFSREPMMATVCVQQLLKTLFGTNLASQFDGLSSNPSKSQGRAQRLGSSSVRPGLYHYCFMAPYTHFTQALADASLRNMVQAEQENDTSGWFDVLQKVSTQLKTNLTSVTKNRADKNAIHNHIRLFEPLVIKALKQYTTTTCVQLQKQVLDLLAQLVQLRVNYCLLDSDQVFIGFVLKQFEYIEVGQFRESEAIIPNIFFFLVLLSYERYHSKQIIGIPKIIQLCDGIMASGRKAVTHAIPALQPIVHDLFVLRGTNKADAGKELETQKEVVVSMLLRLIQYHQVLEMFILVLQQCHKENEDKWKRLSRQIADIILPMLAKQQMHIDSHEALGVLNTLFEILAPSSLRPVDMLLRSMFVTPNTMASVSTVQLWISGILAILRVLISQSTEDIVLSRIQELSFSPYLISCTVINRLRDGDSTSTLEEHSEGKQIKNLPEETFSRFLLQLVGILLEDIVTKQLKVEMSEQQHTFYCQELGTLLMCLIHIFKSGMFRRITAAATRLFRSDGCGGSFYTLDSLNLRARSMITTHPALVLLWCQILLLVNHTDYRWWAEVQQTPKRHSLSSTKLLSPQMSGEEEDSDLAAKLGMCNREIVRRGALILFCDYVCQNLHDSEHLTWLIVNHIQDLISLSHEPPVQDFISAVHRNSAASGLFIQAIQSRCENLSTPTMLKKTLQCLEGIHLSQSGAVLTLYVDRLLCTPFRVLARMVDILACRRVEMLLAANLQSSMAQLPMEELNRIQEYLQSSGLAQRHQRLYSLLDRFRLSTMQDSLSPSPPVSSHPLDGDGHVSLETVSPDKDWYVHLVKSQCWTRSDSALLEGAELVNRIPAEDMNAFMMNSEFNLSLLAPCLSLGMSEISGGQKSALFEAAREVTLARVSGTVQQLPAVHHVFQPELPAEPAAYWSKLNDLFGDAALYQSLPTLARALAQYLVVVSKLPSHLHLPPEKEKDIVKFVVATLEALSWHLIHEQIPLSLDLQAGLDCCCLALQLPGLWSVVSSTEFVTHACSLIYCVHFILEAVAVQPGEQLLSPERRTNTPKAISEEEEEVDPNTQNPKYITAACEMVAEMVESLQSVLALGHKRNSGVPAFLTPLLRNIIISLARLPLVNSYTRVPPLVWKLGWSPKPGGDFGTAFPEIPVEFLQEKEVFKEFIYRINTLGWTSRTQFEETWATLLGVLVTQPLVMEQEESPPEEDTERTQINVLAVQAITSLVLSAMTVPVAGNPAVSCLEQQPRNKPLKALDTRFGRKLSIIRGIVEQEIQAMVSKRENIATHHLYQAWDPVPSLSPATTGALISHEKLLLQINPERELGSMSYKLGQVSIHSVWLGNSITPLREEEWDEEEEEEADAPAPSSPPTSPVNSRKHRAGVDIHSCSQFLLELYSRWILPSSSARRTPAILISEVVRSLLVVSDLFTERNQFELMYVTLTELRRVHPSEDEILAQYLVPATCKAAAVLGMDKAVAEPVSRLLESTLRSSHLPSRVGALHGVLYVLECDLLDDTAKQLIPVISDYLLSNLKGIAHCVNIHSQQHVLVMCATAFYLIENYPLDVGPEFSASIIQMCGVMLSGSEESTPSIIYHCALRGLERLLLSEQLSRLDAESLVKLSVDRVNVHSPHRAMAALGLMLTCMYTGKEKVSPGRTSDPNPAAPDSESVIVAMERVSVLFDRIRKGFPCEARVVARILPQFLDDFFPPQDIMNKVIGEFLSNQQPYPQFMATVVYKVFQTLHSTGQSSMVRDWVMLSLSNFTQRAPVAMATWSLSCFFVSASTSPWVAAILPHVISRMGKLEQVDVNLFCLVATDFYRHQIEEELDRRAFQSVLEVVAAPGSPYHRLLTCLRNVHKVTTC
# UniProt Q9UG01, whole entry, looked up: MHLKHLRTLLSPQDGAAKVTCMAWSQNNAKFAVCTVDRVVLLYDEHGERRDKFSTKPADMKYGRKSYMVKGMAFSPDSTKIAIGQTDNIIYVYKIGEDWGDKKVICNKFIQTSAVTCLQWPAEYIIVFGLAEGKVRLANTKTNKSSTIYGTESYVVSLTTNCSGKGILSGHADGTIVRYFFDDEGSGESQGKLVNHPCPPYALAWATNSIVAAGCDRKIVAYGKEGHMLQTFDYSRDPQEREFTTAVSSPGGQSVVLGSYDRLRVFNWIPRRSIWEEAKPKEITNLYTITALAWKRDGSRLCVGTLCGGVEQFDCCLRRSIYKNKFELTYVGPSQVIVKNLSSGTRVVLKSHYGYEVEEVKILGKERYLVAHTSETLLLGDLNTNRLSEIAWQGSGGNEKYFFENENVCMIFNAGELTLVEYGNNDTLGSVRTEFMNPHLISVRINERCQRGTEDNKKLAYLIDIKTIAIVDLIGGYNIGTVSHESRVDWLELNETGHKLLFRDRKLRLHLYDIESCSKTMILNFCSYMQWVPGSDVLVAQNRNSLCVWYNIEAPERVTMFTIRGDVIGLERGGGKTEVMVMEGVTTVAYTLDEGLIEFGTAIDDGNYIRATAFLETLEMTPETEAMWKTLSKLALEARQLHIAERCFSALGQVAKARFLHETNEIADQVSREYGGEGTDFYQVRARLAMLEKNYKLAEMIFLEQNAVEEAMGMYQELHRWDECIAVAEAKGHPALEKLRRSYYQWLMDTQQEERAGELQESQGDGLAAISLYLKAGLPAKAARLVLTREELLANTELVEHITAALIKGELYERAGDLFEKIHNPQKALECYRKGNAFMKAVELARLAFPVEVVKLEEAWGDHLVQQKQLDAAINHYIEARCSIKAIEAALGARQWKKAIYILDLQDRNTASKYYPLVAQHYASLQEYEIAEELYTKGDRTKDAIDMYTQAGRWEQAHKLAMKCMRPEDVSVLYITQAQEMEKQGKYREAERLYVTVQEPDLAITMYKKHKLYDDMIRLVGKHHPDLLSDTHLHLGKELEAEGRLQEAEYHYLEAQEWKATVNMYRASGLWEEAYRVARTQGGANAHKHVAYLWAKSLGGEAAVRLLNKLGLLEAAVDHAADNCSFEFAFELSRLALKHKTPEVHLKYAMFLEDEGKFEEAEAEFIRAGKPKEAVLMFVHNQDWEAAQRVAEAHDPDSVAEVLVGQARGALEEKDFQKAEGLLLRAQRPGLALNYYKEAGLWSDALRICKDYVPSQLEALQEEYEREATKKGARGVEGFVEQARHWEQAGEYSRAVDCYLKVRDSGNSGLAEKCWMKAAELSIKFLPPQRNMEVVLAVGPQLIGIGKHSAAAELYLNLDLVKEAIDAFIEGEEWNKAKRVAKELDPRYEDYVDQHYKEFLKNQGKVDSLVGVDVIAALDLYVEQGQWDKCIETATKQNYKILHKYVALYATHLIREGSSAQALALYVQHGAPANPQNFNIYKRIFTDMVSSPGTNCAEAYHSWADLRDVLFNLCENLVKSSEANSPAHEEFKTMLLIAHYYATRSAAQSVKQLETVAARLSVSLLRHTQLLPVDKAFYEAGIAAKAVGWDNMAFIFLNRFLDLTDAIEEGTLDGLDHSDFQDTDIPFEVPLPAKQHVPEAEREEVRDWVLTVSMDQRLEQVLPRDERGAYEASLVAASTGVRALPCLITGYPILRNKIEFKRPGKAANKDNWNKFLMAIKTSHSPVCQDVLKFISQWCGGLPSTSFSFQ
# UniProt Q13576: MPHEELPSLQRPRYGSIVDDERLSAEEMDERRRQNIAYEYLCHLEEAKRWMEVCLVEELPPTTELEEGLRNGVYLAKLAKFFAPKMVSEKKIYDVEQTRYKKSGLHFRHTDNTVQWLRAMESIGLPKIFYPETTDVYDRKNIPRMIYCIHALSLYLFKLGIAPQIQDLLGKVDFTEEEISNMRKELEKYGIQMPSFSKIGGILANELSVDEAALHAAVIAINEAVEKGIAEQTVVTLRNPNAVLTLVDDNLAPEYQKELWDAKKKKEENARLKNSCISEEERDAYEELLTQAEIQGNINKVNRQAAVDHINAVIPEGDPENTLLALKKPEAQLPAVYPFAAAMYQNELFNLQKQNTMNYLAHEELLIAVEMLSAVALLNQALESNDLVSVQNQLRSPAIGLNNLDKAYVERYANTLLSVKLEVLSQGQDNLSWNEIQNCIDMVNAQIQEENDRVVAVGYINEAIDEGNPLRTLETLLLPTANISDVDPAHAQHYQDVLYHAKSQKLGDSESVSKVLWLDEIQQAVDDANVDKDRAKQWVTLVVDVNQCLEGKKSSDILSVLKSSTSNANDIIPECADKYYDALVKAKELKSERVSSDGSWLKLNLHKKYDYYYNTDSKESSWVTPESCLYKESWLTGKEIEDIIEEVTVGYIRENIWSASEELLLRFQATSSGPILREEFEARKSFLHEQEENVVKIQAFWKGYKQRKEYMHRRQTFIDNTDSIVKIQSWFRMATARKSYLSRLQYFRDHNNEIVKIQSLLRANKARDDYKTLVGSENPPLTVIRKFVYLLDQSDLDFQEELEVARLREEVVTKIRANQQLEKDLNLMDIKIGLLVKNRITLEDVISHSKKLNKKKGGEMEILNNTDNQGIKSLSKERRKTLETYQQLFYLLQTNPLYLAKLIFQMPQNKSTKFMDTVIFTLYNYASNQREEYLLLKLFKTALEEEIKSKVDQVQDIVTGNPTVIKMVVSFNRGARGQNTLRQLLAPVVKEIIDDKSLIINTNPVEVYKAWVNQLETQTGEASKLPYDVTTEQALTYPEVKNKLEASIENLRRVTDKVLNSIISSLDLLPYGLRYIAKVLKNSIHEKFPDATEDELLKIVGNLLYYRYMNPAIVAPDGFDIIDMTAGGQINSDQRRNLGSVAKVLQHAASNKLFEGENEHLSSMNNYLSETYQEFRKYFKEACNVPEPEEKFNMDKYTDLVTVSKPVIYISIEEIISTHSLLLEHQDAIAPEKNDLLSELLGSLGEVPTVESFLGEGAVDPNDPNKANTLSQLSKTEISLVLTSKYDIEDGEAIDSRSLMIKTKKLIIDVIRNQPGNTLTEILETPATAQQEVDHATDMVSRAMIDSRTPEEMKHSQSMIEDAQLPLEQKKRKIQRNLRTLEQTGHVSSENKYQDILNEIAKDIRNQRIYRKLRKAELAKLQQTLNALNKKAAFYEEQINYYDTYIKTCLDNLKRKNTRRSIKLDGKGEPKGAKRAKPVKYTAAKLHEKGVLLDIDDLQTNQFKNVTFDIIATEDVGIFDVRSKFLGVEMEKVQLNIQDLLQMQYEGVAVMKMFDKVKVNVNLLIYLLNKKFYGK
# UniProt P40189, 409-431: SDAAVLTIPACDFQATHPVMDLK
# Legend:
# [1] = compound: ClCC(=O)N[C@@H]1CCCc2ccccc12; assay: log2 mean competition ratio of IA-DTB cysteine labelling (DMSO/compound) (log2 ratio); higher = stronger cysteine engagement by compound; details: treatment time: 4 h, cell line lysate: HEK293T
# Procedure: (§1)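 IA-DTB competitive cysteine chemoproteomics in HEK293T RIPA lysate. Lysates were treated with compound 29 or 30 at 50 or 200 µM for 4 h, then IA-DTB (500 µM, 1 h), trypsin-digested, NeutrAvidin-enriched and analysed by diaPASEF. Competition ratio = intensity DMSO / intensity compound (n=4 treated, n=64 DMSO); binding: mean log2 CR ≥ 1 and p ≤ 0.05 plus QC filters. Target is the cysteine site.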
# [2] = compound: ClCC(=O)N[C@H]1CCCc2ccccc12; assay: as above; details: treatment time: 4 h, cell line lysate: HEK293T
# Procedure: as §1
Target,log2 mean competition ratio ([1]; 50 µM),log2 mean competition ratio ([1]; 200 µM),log2 mean competition ratio ([2]; 50 µM),log2 mean competition ratio ([2]; 200 µM)
IDH2 C418 (UniProt P48735),0.236,0.0248,-0.216,-0.171
INTS4 C44 (UniProt Q96HW7),0.0782,0.389,0.235,0.325
INTS2 C1164 (UniProt Q9H0H0),0.233,0.184,0.251,0.276
INPPL1 C1187 (UniProt O15357),-0.0531,-0.665,-0.0297,-0.234
IP6K1 C349 (UniProt Q92551),0.0405,0.188,-0.335,0.587
IFT140 C1360 (UniProt Q96RY7),-0.525,-0.131,-0.0696,-0.0655
IPPK C220 (UniProt Q9H8X2),0.00269,-0.0106,-0.0133,0.168
ICE1 C228 (UniProt Q9Y2F5),0.33,0.306,-0.0726,0.187
ILK C239 (UniProt Q13418),-0.0745,0.308,0.17,0.345
HPS6 C692 (UniProt Q86YV9),-0.399,0.153,-0.502,0.255
IGHMBP2 C395 (UniProt P38935),0.113,0.104,0.162,-0.0133
HTT C1998 (UniProt P42858),0.545,-0.0302,-0.261,-0.035
INTS3 C80 (UniProt Q68E01),-0.2,0.0963,-0.0552,0.177
HSDL1 C265 (UniProt Q3SXM5),0.0227,-0.303,0.186,-0.109
HTT C827 (UniProt P42858),0.157,0.062,0.411,0.277
INTS5 C485 (UniProt Q6P9B9),0.172,-0.103,-0.0732,-0.177
IFT172 C517 (UniProt Q9UG01),-0.242,0.0366,-0.68,0.222
IFT172 C1298 (UniProt Q9UG01),-0.184,-0.324,0.573,0.0181
HTATSF1 C512 (UniProt O43719),-0.17,0.142,-0.249,0.149
IQGAP2 C276 (UniProt Q13576),-0.0933,-0.0505,-0.277,-0.287
HTT C823 (UniProt P42858),-0.185,0.423,-0.136,0.276
INPP1 C10 (UniProt P49441),-0.154,-0.295,0.36,-0.0812

Target,log2 mean competition ratio ([1]; 50 µM),log2 mean competition ratio ([1]; 200 µM),log2 mean competition ratio ([2]; 50 µM),log2 mean competition ratio ([2]; 200 µM)
INTS10 C555 (UniProt Q9NVR2),-0.194,0.129,-0.33,0.268
HTATSF1 C295 (UniProt O43719),-0.191,-0.00442,-0.00847,-0.134
IGF2R C1227 (UniProt P11717),-0.328,-0.206,-0.302,-0.167
IFNGR1 C122 (UniProt P15260),-0.144,-0.0935,0.073,0.02
IPO7 C736 (UniProt O95373),0.149,0.172,0.347,0.0178
HPS1 C561 (UniProt Q92902),0.129,-0.38,0.398,-0.221
HSPH1 C310,-0.311,0.269,-0.38,-0.225
IL6ST C419 (UniProt P40189),-0.0611,-0.00782,-0.208,-0.234
IPO9 C90 (UniProt Q96P70),-0.289,-0.0896,-0.287,-0.088
IQGAP2 C1183 (UniProt Q13576),0.00251,-0.239,0.0516,-0.175
ILK C346 (UniProt Q13418),0.0739,0.214,-0.143,0.208
IDH3G C148 (UniProt P51553),0.181,0.292,-0.461,0.0709
IKBKB C524 (UniProt O14920),-0.233,-0.207,0.467,-0.147
IRAK4 C13 (UniProt Q9NWZ3),0.183,0.503,0.228,0.274
HYKK C99 (UniProt A2RU49),0.103,-0.246,0.633,-0.237
ILKAP C301 (UniProt Q9H0C8),-0.136,-0.0804,-0.121,0.138
IGF2R C2096 (UniProt P11717),0.0288,0.328,-0.463,0.631
IRF2BP2 C549 (UniProt Q7Z5L9),0.333,-0.544,0.532,-0.245
HPS6 C408 (UniProt Q86YV9),-0.186,-0.114,0.224,-0.166
IDH1 C269 (UniProt O75874),0.633,0.251,0.551,0.339
ICE1 C123 (UniProt Q9Y2F5),-0.0069,-0.332,0.254,-0.553

# Laid out differently: results already given
Target	log2 mean competition ratio ([1]; 50 µM)	log2 mean competition ratio ([1]; 200 µM)	log2 mean competition ratio ([2]; 50 µM)	log2 mean competition ratio ([2]; 200 µM)
IFT172 C1298 (UniProt Q9UG01)	-0.184	-0.324	0.573	0.0181
IQGAP2 C1183 (UniProt Q13576)	0.00251	-0.239	0.0516	-0.175
ILKAP C301 (UniProt Q9H0C8)	-0.136	-0.0804	-0.121	0.138

# — the supplement of paper PMC11732987, “Enantioselective OTUD7B fragment discovery through chemoproteomics screening and high-throughput optimisation” (Communications Chemistry, 2025)
